Test results as given in patent US20050256134A1, “Use of creatine analogues and creatine kinase modulators for the prevention and treatment of glucose metabolic disorders” (AVICENA GROUP, INC., priority 1995, published 2005).
This continues a long series; more values of the same kind are listed elsewhere.

Test system: terminal cancer patients
Assay: Phase I/II open label dose escalation study, glucose levels, 3 hour continuous infusion
Type: in vivo, human
Description: Cyclocreatine was tested in humans in a phase I/II open label dose escalation study. […] Cyclocreatine was administered at doses that ranged from 10 mg/Kg to 100 mg/Kg. The schedule of administration of cyclocreatine is described in Table 4.
Cohorts of 3 patients were administered drug at each dose level, via a 3 hour continuous infusion in one liter volume of saline. The first week patients received cyclocreatine once, the second week patients received cyclocreatine twice, the third week three times, the fourth week four times, the fifth week five times. On weeks six and seven, no drug was administered to allow the drug to wash out. On week eight, cyclocreatine was given five times. The study included a total of 23 patients (18 male, 5 female) with a median age of 71 years (range 54-85). The patients had different types of malignancies. Eligibility requirements included patients who have failed standard therapy or for whom no therapy was available, normal organ function, have recovered from prior therapies, probability of survival of greater than three months. Reasons for exclusion included: major surgery, life threatening concurrent illness and CNS metastasis. Blood samples were collected at baseline and 1 day before and after the last weekly drug administration on days 1, 7, 9, 14, 17, 21, 25, 28, 33, 40, 47, 49, 54, 61, and 69. Glucose levels were determined for these collected blood samples. […] Not all patients experienced a significant drop in glucose although the trend was there. FIGS. 14 and 15 illustrate graphically individual patients' glucose levels upon treatment with 60 mg/Kg or 80 mg/Kg cyclocreatine. Patient (A) at the 80 mg/Kg dose was diabetic and had many serious complications due to their disease. […] It should be noted that an insufficient number of readings was made shortly after drug administration. It is interesting to note that several patients who were diabetic or had higher glucose levels than normal did respond to cyclocreatine, onen example being illustrated in FIG. 16.

## NC1=NCCN1CC(=O)O [cyclocreatine]
Patient 2, 1, 10 mg/kg, Study Day 17
  Glucose: 108 mg/dL
Patient 2, 1, 10 mg/kg, Study Day 21
  Glucose: 101 mg/dL
Patient 2, 1, 10 mg/kg, Study Day 25
  Glucose: 100 mg/dL
Patient 2, 1, 10 mg/kg, Study Day 28
  Glucose: 103 mg/dL
Patient 2, 1, 10 mg/kg, Study Day 33
  Glucose: 76 mg/dL
Patient 2, 1, 10 mg/kg, Study Day 40
  Glucose: 80 mg/dL
Patient 2, 1, 10 mg/kg, Study Day 47
  Glucose: 86 mg/dL
Patient 2, 1, 10 mg/kg, Study Day 49
  Glucose: 93 mg/dL
Patient 2, 1, 10 mg/kg, Study Day 54
  Glucose: 107 mg/dL
Patient 2, 1, 10 mg/kg, Study Day 61
  Glucose: 100 mg/dL
Patient 2, 1, 10 mg/kg, Study Day 69
  Glucose: 90 mg/dL
Patient 2, 2, 10 mg/kg, Study Day 0
  Glucose: 109 mg/dL
Patient 2, 2, 10 mg/kg, Study Day 1
  Glucose: 84 mg/dL
Patient 2, 2, 10 mg/kg, Study Day 7
  Glucose: 83 mg/dL
Patient 2, 2, 10 mg/kg, Study Day 9
  Glucose: 118 mg/dL
Patient 2, 2, 10 mg/kg, Study Day 14
  Glucose: 126 mg/dL
Patient 2, 2, 10 mg/kg, Study Day 21
  Glucose: 89 mg/dL
Patient 2, 2, 10 mg/kg, Study Day 25
  Glucose: 93 mg/dL
Patient 2, 2, 10 mg/kg, Study Day 28
  Glucose: 90 mg/dL
Patient 2, 2, 10 mg/kg, Study Day 33
  Glucose: 110 mg/dL
Patient 2, 2, 10 mg/kg, Study Day 40
  Glucose: 109 mg/dL
Patient 2, 2, 10 mg/kg, Study Day 49
  Glucose: 191 mg/dL
Patient 2, 3, 10 mg/kg, Study Day 0
  Glucose: 109 mg/dL
Patient 2, 3, 10 mg/kg, Study Day 1
  Glucose: 138 mg/dL
Patient 2, 3, 10 mg/kg, Study Day 7
  Glucose: 144 mg/dL
Patient 2, 3, 10 mg/kg, Study Day 9
  Glucose: 109 mg/dL
Patient 2, 3, 10 mg/kg, Study Day 14
  Glucose: 105 mg/dL
Patient 2, 3, 10 mg/kg, Study Day 17
  Glucose: 84 mg/dL
Patient 2, 3, 10 mg/kg, Study Day 21
  Glucose: 225 mg/dL
Patient 2, 3, 10 mg/kg, Study Day 28
  Glucose: 97 mg/dL
Patient 2, 3, 10 mg/kg, Study Day 33
  Glucose: 54 mg/dL
Patient 2, 3, 10 mg/kg, Study Day 40
  Glucose: 214 mg/dL
Patient 2, 3, 10 mg/kg, Study Day 47
  Glucose: 128 mg/dL
Patient 2, 3, 10 mg/kg, Study Day 49
  Glucose: 223 mg/dL
Patient 2, 3, 10 mg/kg, Study Day 54
  Glucose: 56 mg/dL
Patient 2, 3, 10 mg/kg, Study Day 61
  Glucose: 171 mg/dL
Patient 2, 3, 10 mg/kg, Study Day 69
  Glucose: 335 mg/dL
Patient 2, 4, 20 mg/Kg, Study Day 0
  Glucose: 151 mg/dL
Patient 2, 4, 20 mg/Kg, Study Day 1
  Glucose: 232 mg/dL
Patient 2, 4, 20 mg/Kg, Study Day 7
  Glucose: 80 mg/dL
Patient 2, 4, 20 mg/Kg, Study Day 14
  Glucose: 181 mg/dL
Patient 2, 4, 20 mg/Kg, Study Day 21
  Glucose: 180 mg/dL
Patient 2, 5, 20 mg/Kg, Study Day 0
  Glucose: 77 mg/dL
Patient 2, 5, 20 mg/Kg, Study Day 1
  Glucose: 96 mg/dL
Patient 2, 5, 20 mg/Kg, Study Day 7
  Glucose: 96 mg/dL
Patient 2, 5, 20 mg/Kg, Study Day 9
  Glucose: 104 mg/dL
Patient 2, 5, 20 mg/Kg, Study Day 14
  Glucose: 99 mg/dL
Patient 2, 5, 20 mg/Kg, Study Day 17
  Glucose: 66 mg/dL
Patient 2, 5, 20 mg/Kg, Study Day 21
  Glucose: 84 mg/dL
Patient 2, 5, 20 mg/Kg, Study Day 25
  Glucose: 89 mg/dL
Patient 2, 5, 20 mg/Kg, Study Day 28
  Glucose: 67 mg/dL
Patient 2, 5, 20 mg/Kg, Study Day 33
  Glucose: 77 mg/dL
Patient 2, 5, 20 mg/Kg, Study Day 40
  Glucose: 106 mg/dL
Patient 2, 5, 20 mg/Kg, Study Day 47
  Glucose: 86 mg/dL
Patient 2, 5, 20 mg/Kg, Study Day 54
  Glucose: 91 mg/dL
Patient 2, 5, 20 mg/Kg, Study Day 61
  Glucose: 98 mg/dL
Patient 2, 5, 20 mg/Kg, Study Day 69
  Glucose: 77 mg/dL
Patient 2, 6, 20 mg/Kg, Study Day 0
  Glucose: 84 mg/dL
Patient 2, 6, 20 mg/Kg, Study Day 1
  Glucose: 121 mg/dL
Patient 2, 6, 20 mg/Kg, Study Day 7
  Glucose: 137 mg/dL
Patient 2, 6, 20 mg/Kg, Study Day 9
  Glucose: 131 mg/dL
Patient 2, 6, 20 mg/Kg, Study Day 14
  Glucose: 138 mg/dL
Patient 2, 6, 20 mg/Kg, Study Day 17
  Glucose: 93 mg/dL
Patient 2, 6, 20 mg/Kg, Study Day 21
  Glucose: 139 mg/dL
Patient 2, 6, 20 mg/Kg, Study Day 25
  Glucose: 102 mg/dL
Patient 2, 6, 20 mg/Kg, Study Day 28
  Glucose: 128 mg/dL
Patient 2, 6, 20 mg/Kg, Study Day 33
  Glucose: 94 mg/dL
Patient 2, 6, 20 mg/Kg, Study Day 40
  Glucose: 99 mg/dL
Patient 2, 6, 20 mg/Kg, Study Day 47
  Glucose: 99 mg/dL
Patient 2, 10 mg/kg, Study Day 0
  Glucose: 122 mg/dL
Patient 2, 10 mg/kg, Study Day 7
  Glucose: 119 mg/dL
Patient 2, 10 mg/kg, Study Day 9
  Glucose: 115 mg/dL
Patient 2, 10 mg/kg, Study Day 14
  Glucose: 126 mg/dL
Patient 2, 10 mg/kg, Study Day 21
  Glucose: 223 mg/dL
Patient 2, 10 mg/kg, Study Day 25
  Glucose: 141 mg/dL
Patient 2, 10 mg/kg, Study Day 28
  Glucose: 59 mg/dL
Patient 2, 10 mg/kg, Study Day 33
  Glucose: 97 mg/dL
Patient 2, 10 mg/kg, Study Day 40
  Glucose: 89 mg/dL
Patient 2, 10 mg/kg, Study Day 47
  Glucose: 117 mg/dL
Patient 2, 10 mg/kg, Study Day 54
  Glucose: 103 mg/dL
Patient 2, 10 mg/kg, Study Day 61
  Glucose: 128 mg/dL
Patient 2, 10 mg/kg, Study Day 69
  Glucose: 124 mg/dL
Patient 3, 10 mg/kg, Study Day 0
  Glucose: 121 mg/dL
Patient 3, 10 mg/kg, Study Day 1
  Glucose: 125 mg/dL
Patient 3, 10 mg/kg, Study Day 7
  Glucose: 77 mg/dL
Patient 3, 10 mg/kg, Study Day 9
  Glucose: 116 mg/dL
Patient 3, 10 mg/kg, Study Day 17
  Glucose: 72 mg/dL
Patient 3, 10 mg/kg, Study Day 21
  Glucose: 108 mg/dL
Patient 3, 10 mg/kg, Study Day 25
  Glucose: 96 mg/dL
Patient 3, 10 mg/kg, Study Day 28
  Glucose: 70 mg/dL
Patient 3, 10 mg/kg, Study Day 33
  Glucose: 94 mg/dL
Patient 3, 10 mg/kg, Study Day 40
  Glucose: 98 mg/dL
Patient 3, 10 mg/kg, Study Day 47
  Glucose: 95 mg/dL
Patient 3, 10 mg/kg, Study Day 54
  Glucose: 85 mg/dL
Patient 3, 10 mg/kg, Study Day 69
  Glucose: 104 mg/dL
Patient 4, 20 mg/Kg, Study Day 0
  Glucose: 84 mg/dL
Patient 4, 20 mg/Kg, Study Day 1
  Glucose: 77 mg/dL
Patient 4, 20 mg/Kg, Study Day 7
  Glucose: 85 mg/dL
